# At least one compound was matched to its structure with a doubt left.
# System: PTEN KO orthotopic tumors
# Assay: FTY720 blockade of T cell recruitment in PTEN KO tumor-bearing mice
# Assay type: in vivo
compound,measurement,value
"CCCCCCCCc1ccc(CCC(N)(CO)CO)cc1 [FTY720, Fingolimod]","CD3, CD8 and CD4 TILs (flow cytometry and IHC)",successfully inhibited the increased TILs seen in CP1+PD-1 treated mice

# Source: patent US12611432B2 (priority 2017, dated 2026)
